This is one part of the list.

The chains behind the UniProt entries cited, without tags or fusion partners. Where a name states a change or a piece, a line headed by the entry shows the natural chain unless it says otherwise.
UniProt Q9BQ67, whole entry, looked up: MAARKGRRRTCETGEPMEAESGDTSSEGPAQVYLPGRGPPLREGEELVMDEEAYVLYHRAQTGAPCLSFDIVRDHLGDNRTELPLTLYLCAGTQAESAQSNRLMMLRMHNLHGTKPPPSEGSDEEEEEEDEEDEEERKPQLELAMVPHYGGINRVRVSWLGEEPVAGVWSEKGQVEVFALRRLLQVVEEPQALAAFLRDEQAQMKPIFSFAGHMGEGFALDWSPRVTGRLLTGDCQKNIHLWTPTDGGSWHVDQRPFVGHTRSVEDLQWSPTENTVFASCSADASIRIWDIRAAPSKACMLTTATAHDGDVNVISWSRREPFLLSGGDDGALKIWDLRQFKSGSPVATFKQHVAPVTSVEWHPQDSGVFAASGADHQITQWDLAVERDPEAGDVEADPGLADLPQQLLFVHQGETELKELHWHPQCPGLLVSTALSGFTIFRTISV
UniProt Q9UBQ7: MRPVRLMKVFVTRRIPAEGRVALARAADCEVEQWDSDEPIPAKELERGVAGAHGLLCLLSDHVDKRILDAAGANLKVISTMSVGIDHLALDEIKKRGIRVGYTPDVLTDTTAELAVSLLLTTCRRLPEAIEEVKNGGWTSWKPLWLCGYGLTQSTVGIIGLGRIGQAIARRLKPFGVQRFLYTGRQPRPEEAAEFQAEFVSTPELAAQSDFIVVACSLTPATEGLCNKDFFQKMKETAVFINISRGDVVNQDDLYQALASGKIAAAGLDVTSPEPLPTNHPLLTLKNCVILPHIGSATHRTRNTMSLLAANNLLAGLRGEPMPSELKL
UniProt Q92896: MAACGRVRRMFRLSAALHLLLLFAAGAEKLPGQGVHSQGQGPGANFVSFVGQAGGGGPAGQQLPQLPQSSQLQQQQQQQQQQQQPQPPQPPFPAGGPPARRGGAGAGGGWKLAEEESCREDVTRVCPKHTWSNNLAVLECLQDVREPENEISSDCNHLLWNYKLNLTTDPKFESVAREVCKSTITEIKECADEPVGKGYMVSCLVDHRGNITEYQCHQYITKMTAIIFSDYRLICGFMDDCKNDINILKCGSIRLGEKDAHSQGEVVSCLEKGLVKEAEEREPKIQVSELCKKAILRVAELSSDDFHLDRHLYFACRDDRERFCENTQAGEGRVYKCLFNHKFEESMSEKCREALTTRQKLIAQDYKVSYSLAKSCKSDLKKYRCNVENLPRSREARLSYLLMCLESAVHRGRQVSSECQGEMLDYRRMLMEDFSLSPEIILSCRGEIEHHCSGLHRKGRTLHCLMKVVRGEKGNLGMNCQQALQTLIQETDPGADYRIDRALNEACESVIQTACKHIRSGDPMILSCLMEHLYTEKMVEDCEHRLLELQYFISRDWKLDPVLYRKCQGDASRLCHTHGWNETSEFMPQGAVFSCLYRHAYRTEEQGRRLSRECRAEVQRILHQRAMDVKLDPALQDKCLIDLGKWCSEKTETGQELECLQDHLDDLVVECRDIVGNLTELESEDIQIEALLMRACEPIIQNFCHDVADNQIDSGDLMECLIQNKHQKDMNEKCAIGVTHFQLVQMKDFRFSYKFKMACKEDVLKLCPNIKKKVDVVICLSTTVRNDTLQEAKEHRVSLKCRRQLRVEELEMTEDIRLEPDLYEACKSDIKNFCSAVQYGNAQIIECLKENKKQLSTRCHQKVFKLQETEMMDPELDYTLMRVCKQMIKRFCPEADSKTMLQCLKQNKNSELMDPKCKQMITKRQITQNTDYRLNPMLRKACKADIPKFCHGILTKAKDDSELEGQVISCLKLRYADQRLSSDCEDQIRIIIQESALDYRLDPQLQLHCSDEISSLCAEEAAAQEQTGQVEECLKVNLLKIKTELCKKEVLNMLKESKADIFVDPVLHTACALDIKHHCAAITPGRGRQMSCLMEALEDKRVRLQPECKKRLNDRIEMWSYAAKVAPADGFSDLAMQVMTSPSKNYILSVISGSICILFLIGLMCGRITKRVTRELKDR
UniProt Q9NQX3: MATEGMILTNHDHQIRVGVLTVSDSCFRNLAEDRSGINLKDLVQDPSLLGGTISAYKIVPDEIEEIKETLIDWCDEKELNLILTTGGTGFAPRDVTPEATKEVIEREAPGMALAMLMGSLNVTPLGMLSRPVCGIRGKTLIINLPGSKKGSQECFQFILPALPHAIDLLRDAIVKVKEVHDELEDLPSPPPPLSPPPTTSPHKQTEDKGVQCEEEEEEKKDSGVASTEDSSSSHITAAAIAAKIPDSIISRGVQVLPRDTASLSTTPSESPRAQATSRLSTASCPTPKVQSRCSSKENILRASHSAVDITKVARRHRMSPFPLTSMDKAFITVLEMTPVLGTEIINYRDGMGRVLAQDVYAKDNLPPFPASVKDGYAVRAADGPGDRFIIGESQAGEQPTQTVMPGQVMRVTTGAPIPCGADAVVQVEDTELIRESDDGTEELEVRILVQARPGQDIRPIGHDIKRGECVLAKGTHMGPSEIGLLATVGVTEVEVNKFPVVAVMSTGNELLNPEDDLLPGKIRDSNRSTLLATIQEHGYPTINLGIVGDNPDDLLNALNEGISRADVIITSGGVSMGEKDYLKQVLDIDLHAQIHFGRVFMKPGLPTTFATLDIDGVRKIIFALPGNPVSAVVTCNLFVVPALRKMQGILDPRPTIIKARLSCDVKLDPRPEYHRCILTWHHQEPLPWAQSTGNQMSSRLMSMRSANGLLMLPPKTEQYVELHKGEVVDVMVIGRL
UniProt Q9HC38: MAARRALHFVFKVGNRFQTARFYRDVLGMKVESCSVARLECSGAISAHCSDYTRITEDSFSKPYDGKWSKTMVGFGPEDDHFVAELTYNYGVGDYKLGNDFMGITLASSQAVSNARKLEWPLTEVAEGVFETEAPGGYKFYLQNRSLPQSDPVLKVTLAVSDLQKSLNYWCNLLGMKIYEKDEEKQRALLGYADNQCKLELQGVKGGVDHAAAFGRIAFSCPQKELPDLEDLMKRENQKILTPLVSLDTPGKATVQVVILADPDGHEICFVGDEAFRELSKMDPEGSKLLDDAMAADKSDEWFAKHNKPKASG
UniProt O14908: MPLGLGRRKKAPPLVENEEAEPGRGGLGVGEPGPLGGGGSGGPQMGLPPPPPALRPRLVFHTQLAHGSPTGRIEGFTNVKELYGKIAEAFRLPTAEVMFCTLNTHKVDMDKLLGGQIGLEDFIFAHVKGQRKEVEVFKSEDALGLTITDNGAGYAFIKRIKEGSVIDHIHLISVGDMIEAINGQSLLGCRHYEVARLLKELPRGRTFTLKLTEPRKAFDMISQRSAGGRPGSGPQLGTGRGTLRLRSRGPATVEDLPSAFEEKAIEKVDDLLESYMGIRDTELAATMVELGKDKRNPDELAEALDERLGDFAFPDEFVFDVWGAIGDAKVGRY
UniProt Q08379: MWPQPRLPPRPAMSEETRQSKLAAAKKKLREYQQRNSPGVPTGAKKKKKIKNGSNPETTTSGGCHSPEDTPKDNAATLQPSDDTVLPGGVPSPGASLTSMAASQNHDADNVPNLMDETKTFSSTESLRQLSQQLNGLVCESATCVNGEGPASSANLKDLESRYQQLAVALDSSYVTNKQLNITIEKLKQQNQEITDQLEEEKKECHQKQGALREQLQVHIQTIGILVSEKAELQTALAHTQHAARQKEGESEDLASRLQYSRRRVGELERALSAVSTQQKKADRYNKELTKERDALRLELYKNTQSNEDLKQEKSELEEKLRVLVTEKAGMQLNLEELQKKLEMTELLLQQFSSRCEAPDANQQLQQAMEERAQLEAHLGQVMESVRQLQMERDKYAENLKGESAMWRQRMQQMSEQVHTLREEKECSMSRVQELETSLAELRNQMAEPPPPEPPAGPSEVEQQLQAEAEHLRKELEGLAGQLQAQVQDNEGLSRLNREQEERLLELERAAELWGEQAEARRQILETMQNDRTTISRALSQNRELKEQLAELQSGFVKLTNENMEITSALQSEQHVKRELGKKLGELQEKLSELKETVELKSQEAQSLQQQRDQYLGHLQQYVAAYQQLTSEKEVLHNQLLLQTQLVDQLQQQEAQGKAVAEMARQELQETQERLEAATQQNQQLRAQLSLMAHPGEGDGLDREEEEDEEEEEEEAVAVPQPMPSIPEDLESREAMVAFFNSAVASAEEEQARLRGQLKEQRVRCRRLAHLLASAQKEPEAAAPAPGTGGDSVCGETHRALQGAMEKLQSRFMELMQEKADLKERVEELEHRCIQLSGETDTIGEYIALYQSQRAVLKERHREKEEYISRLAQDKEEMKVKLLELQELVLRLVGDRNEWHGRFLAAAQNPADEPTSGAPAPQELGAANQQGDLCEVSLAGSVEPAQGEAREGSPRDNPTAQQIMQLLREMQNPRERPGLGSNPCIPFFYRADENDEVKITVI
UniProt Q9BRX5: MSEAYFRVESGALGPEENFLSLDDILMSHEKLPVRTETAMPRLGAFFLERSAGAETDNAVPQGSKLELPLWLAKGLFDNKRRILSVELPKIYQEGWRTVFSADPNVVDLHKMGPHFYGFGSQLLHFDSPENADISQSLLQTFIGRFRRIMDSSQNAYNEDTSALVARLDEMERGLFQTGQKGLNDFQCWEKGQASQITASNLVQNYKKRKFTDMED
UniProt Q8TBA6: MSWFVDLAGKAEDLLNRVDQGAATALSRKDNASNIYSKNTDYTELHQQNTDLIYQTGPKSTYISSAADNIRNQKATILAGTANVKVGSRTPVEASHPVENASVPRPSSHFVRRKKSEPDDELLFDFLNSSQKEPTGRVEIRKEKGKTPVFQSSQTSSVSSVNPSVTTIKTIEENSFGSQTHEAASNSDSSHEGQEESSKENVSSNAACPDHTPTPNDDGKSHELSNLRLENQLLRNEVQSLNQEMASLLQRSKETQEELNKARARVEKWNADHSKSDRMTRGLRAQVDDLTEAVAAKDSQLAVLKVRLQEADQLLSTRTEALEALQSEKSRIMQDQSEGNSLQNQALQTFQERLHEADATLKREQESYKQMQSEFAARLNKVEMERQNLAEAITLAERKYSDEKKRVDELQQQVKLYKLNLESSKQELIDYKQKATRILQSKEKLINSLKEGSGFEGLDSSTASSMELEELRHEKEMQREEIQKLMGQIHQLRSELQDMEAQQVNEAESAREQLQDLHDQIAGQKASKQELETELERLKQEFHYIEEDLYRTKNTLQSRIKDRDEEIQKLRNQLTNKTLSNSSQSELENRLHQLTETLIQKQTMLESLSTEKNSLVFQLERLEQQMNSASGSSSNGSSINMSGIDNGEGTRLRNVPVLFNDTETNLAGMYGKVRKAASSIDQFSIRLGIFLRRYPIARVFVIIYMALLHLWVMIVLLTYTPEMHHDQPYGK
UniProt P17174: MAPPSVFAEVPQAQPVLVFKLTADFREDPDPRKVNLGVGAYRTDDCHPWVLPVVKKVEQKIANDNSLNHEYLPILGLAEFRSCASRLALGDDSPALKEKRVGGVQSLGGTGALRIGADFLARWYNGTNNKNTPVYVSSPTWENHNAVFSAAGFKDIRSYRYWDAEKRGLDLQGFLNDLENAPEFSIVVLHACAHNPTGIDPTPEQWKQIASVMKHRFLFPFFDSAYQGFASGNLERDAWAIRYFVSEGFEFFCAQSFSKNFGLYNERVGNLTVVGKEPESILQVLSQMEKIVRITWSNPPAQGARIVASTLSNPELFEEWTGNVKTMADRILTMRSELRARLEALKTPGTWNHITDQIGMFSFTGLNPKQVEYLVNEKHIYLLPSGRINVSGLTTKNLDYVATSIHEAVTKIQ
UniProt P17900: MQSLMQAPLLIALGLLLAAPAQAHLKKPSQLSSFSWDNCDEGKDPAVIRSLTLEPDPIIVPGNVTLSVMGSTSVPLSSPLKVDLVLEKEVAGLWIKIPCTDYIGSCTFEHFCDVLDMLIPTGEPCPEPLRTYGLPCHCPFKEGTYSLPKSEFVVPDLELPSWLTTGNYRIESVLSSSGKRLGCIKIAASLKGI
UniProt P50148, whole entry, looked up: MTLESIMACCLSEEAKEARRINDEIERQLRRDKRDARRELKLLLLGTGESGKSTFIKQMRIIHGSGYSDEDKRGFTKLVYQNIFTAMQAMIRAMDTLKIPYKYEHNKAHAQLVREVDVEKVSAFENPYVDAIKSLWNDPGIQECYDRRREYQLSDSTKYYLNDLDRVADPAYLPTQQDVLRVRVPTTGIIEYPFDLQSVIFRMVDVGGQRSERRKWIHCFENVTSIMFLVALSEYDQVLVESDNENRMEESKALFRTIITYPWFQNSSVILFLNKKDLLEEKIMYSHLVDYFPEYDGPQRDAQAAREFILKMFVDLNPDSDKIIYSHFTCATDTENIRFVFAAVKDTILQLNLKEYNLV
UniProt Q8N954: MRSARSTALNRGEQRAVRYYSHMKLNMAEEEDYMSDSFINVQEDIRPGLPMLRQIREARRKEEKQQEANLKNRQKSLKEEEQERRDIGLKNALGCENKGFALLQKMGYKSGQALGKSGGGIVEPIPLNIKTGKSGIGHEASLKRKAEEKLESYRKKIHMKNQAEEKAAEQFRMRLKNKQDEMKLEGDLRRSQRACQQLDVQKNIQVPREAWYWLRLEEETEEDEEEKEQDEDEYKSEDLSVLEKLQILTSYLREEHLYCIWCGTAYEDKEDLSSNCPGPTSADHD

Results on 39 targets are retold here after the supplement of paper PMC10849652.

Compound in one experiment: C[C@@H](Oc1cc(-c2cnn(C3CCNCC3)c2)cnc1N)c1c(Cl)ccc(F)c1Cl [crizotinib]
Put plainly: log2 fold change, soluble protein after heating vs DMSO (PISA); higher = thermal stabilisation; K562 cells, 10 uM, 30 min; active = over 0.2 and 3.5 SD of the protein, either way, in both replicates (recomputed). The method, boiled down:
(§1)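 Quantification of soluble protein used TMTpro 16plex LC-MS/MS, with channel sums equalised. Samples were the supernatant after 21,000xg for 90 min of pooled aliquots from K562 cells (2×10^6 cells/mL) treated with 10 μM compound for 30 min, heated for 3 min over 48°C-58°C, and extracted in PBS with 0.5% NP-40 at 4°C. Values, from duplicates, describe thermal stability against control samples on a log2 fold-change scale.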
Turning to GRWD1 (UniProt Q9BQ67), the log2 fold change was inactive: 0.063.

As to GRHPR (UniProt Q9UBQ7), the log2 fold change was inactive: -0.021.

Consider GLG1 isoform 2 (UniProt Q92896), for which the log2 fold change was inactive: 0.02.

Consider GRSF1 (UniProt Q12849), for which the log2 fold change was inactive: -0.045.

As for GPHN isoform 2 (UniProt Q9NQX3), the log2 fold change is inactive: 0.014.

As for GLOD4 isoform 2 (UniProt Q9HC38), the log2 fold change is inactive: -0.064.

Take GLB1L2 (UniProt Q8IW92): the log2 fold change is inactive: 0.026.

Consider GIPC1 (UniProt O14908), for which the log2 fold change was inactive: 0.057.

For the target GOLGA2 (UniProt Q08379), the log2 fold change was inactive: 0.064.

Turning to GINS3 (UniProt Q9BRX5), the log2 fold change is inactive: 0.046.

Take GOLGA5 (UniProt Q8TBA6): the log2 fold change is inactive: 0.066.

For GOT1 (UniProt P17174), the log2 fold change was inactive: 0.011.

As to GM2A (UniProt P17900), the log2 fold change was inactive: 0.121.

On to GMFG (UniProt O60234), for which the log2 fold change is inactive: 0.041.

Consider GNAQ (UniProt P50148), for which the log2 fold change was inactive: 0.126.

Regarding GPATCH11 (UniProt Q8N954), the log2 fold change is inactive: -0.001.

Compound in a further experiment: C[C@@H]1COCCN1C2=NC(=NC(=C2)C3(CC3)S(=O)(=O)C)C4=C5C=CNC5=CC=C4
The description is as above. The method, boiled down: as §1
In the case of GMPPB isoform 2 (UniProt Q9Y5P6), the log2 fold change was inactive: 0.026.

Consider GK (UniProt P32189), for which the log2 fold change is inactive: 0.013.

In the case of GRN (UniProt P28799), the log2 fold change is inactive: 0.025.

Turning to GRB2 (UniProt P62993), the log2 fold change was inactive: -0.037.

For GINS4 (UniProt Q9BRT9), the log2 fold change is inactive: -0.026.

For the target GRAP2 (UniProt O75791), the log2 fold change is inactive: -0.015.

For GPD1L (UniProt Q8N335), the log2 fold change is inactive: 0.044.

Take GNA13 (UniProt Q14344): the log2 fold change was inactive: 0.065.

Turning to GOSR1 (UniProt O95249), the log2 fold change was inactive: 0.016.

Regarding GPATCH8 (UniProt Q9UKJ3), the log2 fold change is inactive: 0.007.

Take GPALPP1 (UniProt Q8IXQ4): the log2 fold change was inactive: 0.018.

As to GPD2 (UniProt P43304), the log2 fold change is inactive: -0.009.

For the target GPRIN1 (UniProt Q7Z2K8), the log2 fold change was inactive: 0.062.

As to GPN3 isoform 2 (UniProt Q9UHW5), the log2 fold change was inactive: 0.07.

On to GNPDA2 (UniProt Q8TDQ7), for which the log2 fold change is inactive: 0.036.

As for GMPR2 isoform 2 (UniProt Q9P2T1), the log2 fold change was inactive: 0.038.

On to GNE isoform 2 (UniProt Q9Y223), for which the log2 fold change was inactive: 0.085.

Take GPAA1 (UniProt O43292): the log2 fold change is inactive: 0.02.

Regarding GPR107 (UniProt Q5VW38), the log2 fold change was inactive: -0.025.

For the target GORASP2 isoform 3 (UniProt Q9H8Y8), the log2 fold change was inactive: 0.022.

Turning to GOLIM4 (UniProt O00461), the log2 fold change is inactive: 0.035.

Regarding GPN1 isoform 5 (UniProt Q9HCN4), the log2 fold change was inactive: 0.09.

On to GOLT1B (UniProt Q9Y3E0), for which the log2 fold change was inactive: 0.022.

Turning to GRWD1 (UniProt Q9BQ67), the log2 fold change is inactive: -0.398.

In the case of GRHPR (UniProt Q9UBQ7), the log2 fold change is inactive: 0.069.

On to GLG1 isoform 2 (UniProt Q92896), for which the log2 fold change was inactive: -0.003.

For GRSF1 (UniProt Q12849), the log2 fold change is inactive: -0.001.

In the case of GPHN isoform 2 (UniProt Q9NQX3), the log2 fold change is inactive: -0.002.

GLOD4 isoform 2 (UniProt Q9HC38): the log2 fold change is inactive: 0.074.

In the case of GLB1L2 (UniProt Q8IW92), the log2 fold change is inactive: 0.069.

On to GIPC1 (UniProt O14908), for which the log2 fold change is inactive: 0.047.

In the case of GOLGA2 (UniProt Q08379), the log2 fold change was inactive: -0.085.

In the case of GINS3 (UniProt Q9BRX5), the log2 fold change is inactive: 0.036.

For GOLGA5 (UniProt Q8TBA6), the log2 fold change is inactive: -0.007.

For GOT1 (UniProt P17174), the log2 fold change is inactive: 0.064.

As for GM2A (UniProt P17900), the log2 fold change was inactive: 0.037.

As for GMFG (UniProt O60234), the log2 fold change is inactive: 0.01.

As to GNAQ (UniProt P50148), the log2 fold change is inactive: 0.097.

Consider GPATCH11 (UniProt Q8N954), for which the log2 fold change was inactive: -0.058.

Compound in the next experiment: C[C@H](C1=CC=C(C=C1)C(=O)NC2=C3C=CNC3=NC=C2)N
Described as above. The method, boiled down:
as §1
With GMPPB isoform 2 (UniProt Q9Y5P6), the log2 fold change is inactive: -0.038.

Take GK (UniProt P32189): the log2 fold change was inactive: -0.007.

Regarding GRN (UniProt P28799), the log2 fold change is inactive: -0.01.

As for GRB2 (UniProt P62993), the log2 fold change is inactive: -0.074.

GINS4 (UniProt Q9BRT9): the log2 fold change is inactive: -0.095.

On to GRAP2 (UniProt O75791), for which the log2 fold change was inactive: 0.1.

In the case of GPD1L (UniProt Q8N335), the log2 fold change is inactive: 0.043.

On to GNA13 (UniProt Q14344), for which the log2 fold change is inactive: -0.111.

In the case of GOSR1 (UniProt O95249), the log2 fold change was inactive: -0.095.

With GPATCH8 (UniProt Q9UKJ3), the log2 fold change was inactive: 0.01.

Regarding GPALPP1 (UniProt Q8IXQ4), the log2 fold change was inactive: -0.07.

Take GPD2 (UniProt P43304): the log2 fold change is inactive: -0.021.

GPRIN1 (UniProt Q7Z2K8): the log2 fold change was inactive: -0.034.

Regarding GPN3 isoform 2 (UniProt Q9UHW5), the log2 fold change is inactive: 0.066.

Turning to GNPDA2 (UniProt Q8TDQ7), the log2 fold change is inactive: -0.141.

For GMPR2 isoform 2 (UniProt Q9P2T1), the log2 fold change is inactive: -0.094.

Turning to GNE isoform 2 (UniProt Q9Y223), the log2 fold change was inactive: -0.006.

As to GPAA1 (UniProt O43292), the log2 fold change was inactive: -0.027.

For the target GPR107 (UniProt Q5VW38), the log2 fold change is inactive: -0.038.

Turning to GORASP2 isoform 3 (UniProt Q9H8Y8), the log2 fold change was inactive: 0.124.

Turning to GOLIM4 (UniProt O00461), the log2 fold change is inactive: 0.009.

In the case of GPN1 isoform 5 (UniProt Q9HCN4), the log2 fold change is inactive: -0.021.

For the target GOLT1B (UniProt Q9Y3E0), the log2 fold change was inactive: -0.029.

For GRWD1 (UniProt Q9BQ67), the log2 fold change is inactive: 0.376.

For the target GRHPR (UniProt Q9UBQ7), the log2 fold change is inactive: -0.048.

Take GLG1 isoform 2 (UniProt Q92896): the log2 fold change is inactive: -0.038.

Take GRSF1 (UniProt Q12849): the log2 fold change was inactive: 0.249.

Consider GPHN isoform 2 (UniProt Q9NQX3), for which the log2 fold change was inactive: 0.001.

With GLOD4 isoform 2 (UniProt Q9HC38), the log2 fold change was inactive: -0.05.

Take GLB1L2 (UniProt Q8IW92): the log2 fold change is inactive: 0.118.

GIPC1 (UniProt O14908): the log2 fold change was inactive: -0.002.

For the target GOLGA2 (UniProt Q08379), the log2 fold change is inactive: 0.236.

Consider GINS3 (UniProt Q9BRX5), for which the log2 fold change was inactive: -0.062.

With GOLGA5 (UniProt Q8TBA6), the log2 fold change is inactive: -0.036.

For GOT1 (UniProt P17174), the log2 fold change was inactive: -0.062.

Regarding GM2A (UniProt P17900), the log2 fold change is inactive: 0.019.

For GMFG (UniProt O60234), the log2 fold change was inactive: -0.07.

Consider GNAQ (UniProt P50148), for which the log2 fold change is inactive: -0.086.

As to GPATCH11 (UniProt Q8N954), the log2 fold change was inactive: 0.039.
